Measured values as given in PMC7112222, “Investigation of pyrimidine nucleoside analogues as chemical probes to assess compound effects on the proliferation of Trypanosoma cruzi intracellular parasites” (PLoS Neglected Tropical Diseases, 2020).
Counter-ions that a name gives are not always drawn.

Tests used:
[1] = test system: T. cruzi intracellular amastigotes; assay: Image-based assay of the number of T. cruzi infected cells (intracellular amastigotes in 3T3 host cells); assay type: cell-based; details: Trypanosoma cruzi; 48 hours exposure; well-established intracellular infection assay; mean ± SD; POSA value based on sub-optimal effect (Emax 75%); read-out: IC50 value Infected cells (Hoechst)
Experimental: Parasites and host cells were maintained as outlined previously. Briefly, host 3T3 fibroblasts (ATCC, CCL-92) were grown in RPMI medium (Thermo Fisher Scientific, USA) with no phenol red, supplemented with 10% FBS (Thermo Fisher Scientific, USA) and incubated at 37°C in 5% CO2. Host cells were harvested at 70% confluency and were split every 2–3 days in 175 cm^2 flasks. 3T3 cells were cultured up to passage 7 as contact inhibition was reduced or lost at higher passages. Prior to infection with T. cruzi trypomastigotes, host cells were seeded at 1.2 x 10^6 cells in 75 cm^2 or 4 x 10^5 cells in 25 cm^2 flasks and grown for 24 hours before parasite addition. […]
The activity of the nucleoside analogues against T. cruzi intracellular amastigotes following 24, 48 hours exposure and compound wash off, was determined using image-based techniques as previously described. […]
IC50 values for inhibitory activity of both the nucleoside analogues tested as DNA probes and known inhibitors tested to determine their effect on replication of T. cruzi were calculated in GraphPad Prism 5, using sigmoidal dose response with variable slope. […] The p-value for difference in the % activity at Emax concentrations for compounds with known activity (EdU identified parasites, compared to Hoechst identified parasites) against T. cruzi was determined using GraphPad Prism 5, using an unpaired student’s t-test. […]

[2] = test system: T. cruzi intracellular amastigotes; assay: Detection of T. cruzi replication following exposure to inhibitors (EdU incorporation vs Hoechst); assay type: cell-based, Trypanosoma cruzi; details: for IC50: Trypanosoma cruzi, 48 hours exposure, mean ± SD
Experimental: The addition of host cells, parasites and compounds were as described for the T. cruzi image based method previously reported. […] Addition of nuclear and cytoplasmic dyes was undertaken as previously reported and images captured on an Opera confocal image-based system at 20x magnification. Image analysis was performed with a script developed in Columbus software (CHEMICAL LABEL INCORPORATION SCRIPT). Control wells were also imaged at an increased, 60x magnification to show the distribution of staining and the structure of the parasites within host cells. Eight background control wells consisted of infected host cells, fixed and exposed to Hoechst and the click chemistry cocktail, without the addition of the chemical probe EdU. […] All images taken were not modified and were taken on an Opera, confocal image-based reader. […] Results are given ± standard deviation and mean values were taken from two experimental replicates.

Question: Which results are given for CN1CCC[C@@H]1CCO[C@](C)(c1ccccc1)c1ccc(Cl)cc1 [CF, clemastine fumarate]?
Answer: IC50 [1]: 0.56 ± 0.046 µM; inhibition of EdU incorporation ([2]; 2 hours exposure, 45 x the IC50 value, then 1.83 μM EdU 2 hours): < 20%; IC50 ([2]; then 0.37 μM EdU for 4 hours, number of EdU incorporating parasites, read-out: IC50 value Amastigotes (EdU)): 0.46 ± 0.1 µM; IC50 ([2]; number of Hoechst identified parasites in infected cells, read-out: IC50 value Amastigotes (Hoechst)): 0.43 ± 0.031 µM
